From US20060247419A1, “Translocation dependent complementation for drug screening” (BioImage A/S, priority 2002, published 2006)
Results are given in words; binding and its absence hold for the method and conditions named. Some entries that bind do so weakly or less than the wild type.

Target: CZ-CtermEYFP158 (Aequorea victoria)
Experiment: split-EYFP fluorescence complementation, co-transfected CHO-hIR cells, microscopy

binding: binds
B1: NtermEYFP157-NZ (protein)
chain: MVSKGEELFTGVVPILVELDGDVNGHKFSVSGEGEGDATYGKLTLKFICTTGKLPVPWPTLVTTFGYGLQCFARYPDHMKQHDFFKSAMPEGYVQERTIFFKDDGNYKTRAEVKFEGDTLVNRIELKGIDFKEDGNILGHKLEYNYNSHNVYIMADKGGTGSGALKKELQANKKELAQLKWELQALKKELAQ
